Source: patent US4469680A, “Iodinated vasopressin antagonists” (SmithKline Beckman Corporation, priority 1983, dated 1984)
Part of at least one peptide drawing is inferred or uncertain, most often the ends. Starred links: 1 amine or outer side, 2 acyl side, 3 side chain; linkers in the order of their positions; H or OH if unused. Positions of bridges follow the written chain, without caps; N, C: chain ends. Non-standard residues stand in square brackets, D forms with d. Residues, ends and D or L forms follow the SMILES beside them. dTyr(3,5-I2) = N[C@H](Cc1cc(I)c(O)c(I)c1)C(=O)O; dTyr(3-I) = N[C@H](Cc1ccc(O)c(I)c1)C(=O)O; X1 = O=C(CC1(S[*:2])CCCCC1)[*:1]

Legend:
[1] = target: vasopressin stimulated adenylate cyclase activity; assay: Hog kidney assay: adenylate cyclase activity in renal medullary membranes; type: biochemical; settings: for Ki: antagonism of vasopressin-stimulated adenylate cyclase, hog renal medullary membranes, Ki = I/[(Ka'/Ka)-1], read-out: anti-ADH activity in vitro (Pig) Ki; for anti-ADH activity (comparison in words): text summary of Table I results (in vitro hog kidney and in vivo hydropenic rat)
hydropenic rat = assay: Hydropenic rat screen (anti-ADH activity in vivo); settings: estimated dose of peptide delivered ip which reduces Uosm from hydropenic levels to 300 mOsmoles/kg H2O

How did the Ki [1] turn out when `CC(C)[C@@H]1NC(=O)[C@H](Cc2ccccc2)NC(=O)[C@@H](Cc2ccc(O)cc2)NC(=O)CC2(CCCCC2)SSC[C@@H](C(=O)N2CCC[C@H]2C(=O)N[C@@H](CCCNC(=N)N)C(=O)NCC(N)=O)NC(=O)[C@H](CC(N)=O)NC1=O` [A, [Pmp^1, D-Tyr^2, Val^4]AVP, reference compound] ([dY]FVNCPRG-NH2; linker N-5 via X1) was run?
The Ki was 30 nM.

And the “anti-ADH activity in vivo (Rat) ED300” value (hydropenic rat)?
The value was 0.0318 ± 0.0054 mg/kg.

Which Ki [1] does the source give for `CC(C)[C@@H]1NC(=O)[C@H](Cc2ccccc2)NC(=O)[C@@H](Cc2ccc(O)c(I)c2)NC(=O)CC2(CCCCC2)SSC[C@@H](C(=O)N2CCC[C@H]2C(=O)N[C@@H](CCCNC(=N)N)C(=O)NCC(N)=O)NC(=O)[C@H](CC(N)=O)NC1=O` [B, [Pmp^1, D-Tyr(I)^2, Val^4]AVP] ([dTyr(3-I)]FVNCPRG-NH2; linker N-5 via X1) here?
The Ki was 40 nM.

What about the “anti-ADH activity (comparison in words)” value [1] of the same compound?
Its value is “about equivalent in activity to the prior art desiodo compound (A)”.

What about the “anti-ADH activity in vivo (Rat) ED300” value (hydropenic rat) of the same compound?
The value was 0.0926 mg/kg.

What does the source list for `CC(C)[C@@H]1NC(=O)[C@H](Cc2ccccc2)NC(=O)[C@@H](Cc2cc(I)c(O)c(I)c2)NC(=O)CC2(CCCCC2)SSC[C@@H](C(=O)N2CCC[C@H]2C(=O)N[C@@H](CCCNC(=N)N)C(=O)NCC(N)=O)NC(=O)[C@H](CC(N)=O)NC1=O` [C, [Pmp^1, D-Tyr(I2)^2, Val^4]AVP] ([dTyr(3,5-I2)]FVNCPRG-NH2; linker N-5 via X1)?
Ki [1]: 900 nM; anti-ADH activity (comparison in words) [1]: substantially less active than Compound B
